The assay addresses FLAG-tagged FTO (UniProt Q9C0B1). Nature of the assay: co-IP; HEK293T cells co-transfected with FLAG-tagged FTO and HA-tagged ubiquitin, with or without GSK3β; FTO immunoprecipitated with an anti-FLAG antibody, Western blotting. Background: Immunoblotting shows a protein as a band on a membrane.

Amino acid sequences for entries named in this document (tags omitted).
UniProt P49841: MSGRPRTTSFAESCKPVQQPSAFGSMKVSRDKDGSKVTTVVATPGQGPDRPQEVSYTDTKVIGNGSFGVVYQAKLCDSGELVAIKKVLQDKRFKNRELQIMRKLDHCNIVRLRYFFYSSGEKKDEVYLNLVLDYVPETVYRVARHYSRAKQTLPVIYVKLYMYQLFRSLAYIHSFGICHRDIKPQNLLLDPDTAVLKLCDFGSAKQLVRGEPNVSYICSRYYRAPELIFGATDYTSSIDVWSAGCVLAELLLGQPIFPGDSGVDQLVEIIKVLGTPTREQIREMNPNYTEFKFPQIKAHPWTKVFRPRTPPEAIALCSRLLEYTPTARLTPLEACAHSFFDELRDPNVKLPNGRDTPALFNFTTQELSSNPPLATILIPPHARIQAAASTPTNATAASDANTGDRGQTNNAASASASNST

No constants are given. Whether binding was seen depends on the method and setting. In cells and extracts the contact can be indirect. Some binding calls cover weakened binding; strength is not graded here.

“GSK3β (from UniProt P49841 1-420) (enzyme)”: the binding entry is “binds”.

(Values after publication PMC12877946.)
